Experimental data as given in US10273208B2, “Screening methods for the binding affinity of chemical entities to biological molecules and NEDD4-1 inhibitors identified by the screening methods” (Northwestern University, priority 2014, dated 2019).

Test system: NEDD4-1 HECT domain
Experiment: Covalent labeling of NEDD4-1 HECT domain (gel filtration, whole protein ESI-MS)
Assay type: binding, human
Conditions: NEDD4-1 HECT mutants 10 μM, 4 h; 1, 2 at 100 μM, 3 at 1 mM
Description: 10 μM of NEDD4-1 HECT domain in 50 mM HEPES 150 mM NaCl 0.1 mM EDTA 1 mM DTT pH 7.5 was treated with a mixture of ten fragments (from 10 mM each DMSO stock solution mixtures; final concentrations: 100 μM of each fragment, and 1% DMSO). Fragment structures and mixture compositions were the same as reported previously. The reaction mixture was incubated for 4 h at 23° C. before being passed through Zeba gel filtration columns (Thermo, 7K MWCO) to remove unreacted fragments. The protein solution was then immediately analyzed by whole protein LC/ESI-MS.
Accurate-mass data were obtained on an Agilent 6210A LC-TOF mass spectrometer in positive ion mode using electrospray ionization. Samples were chromatographed on the LC-TOF instrument using a Poroshell 120 EC-C18 HPLC column (2.1*50 mm, 2.7 micron), an Agilent Series 1200 HPLC binary pump, and an Agilent Series 1200 autoinjector. The HPLC column was held at 45° C. and the autosampler was held at 8° C. Mobile Phase A was a solution of 0.1% formic acid in water:acetonitrile (19:1). Mobile Phase B was a solution of 0.1% formic acid in acetonitrile. The flow rate was set to 250 μL/min. The gradient used was 0% B for 2 minutes, ramping linearly to 90% B from 2 minutes to 5 minutes, holding at 90% B from 5 minutes to 7 minutes, and then returning to 0% B at 7.1 minutes. […]

Row | Compound | cysteine of NEDD4-1 modified (Cys to Ala point mutants)
1 | COC(=O)/C=C/CNC(C)=O [Compound 3, methyl (E)-4-acetamidobut-2-enoate] | catalytic Cys^867 of NEDD4-1 was more reactive than Cys^627
2 | COC(=O)/C=C/CNC(=O)c1c(C)n(C)c2ccc(OC)cc12 [Compound 1, Methyl(E)-4-(5-methoxy-1,2-dimethyl-1H-indole-3-carboxamido)but-2-enoate] | selectively react with the non-catalytic Cys^627
